Reference: the supplement of paper PMC10849652
Some of the results follow.

Amino acid sequences for entries named in this document (tags omitted). A change or cut given only in a name is not applied to a line headed by its entry.
UniProt Q9NQI0, whole entry, looked up: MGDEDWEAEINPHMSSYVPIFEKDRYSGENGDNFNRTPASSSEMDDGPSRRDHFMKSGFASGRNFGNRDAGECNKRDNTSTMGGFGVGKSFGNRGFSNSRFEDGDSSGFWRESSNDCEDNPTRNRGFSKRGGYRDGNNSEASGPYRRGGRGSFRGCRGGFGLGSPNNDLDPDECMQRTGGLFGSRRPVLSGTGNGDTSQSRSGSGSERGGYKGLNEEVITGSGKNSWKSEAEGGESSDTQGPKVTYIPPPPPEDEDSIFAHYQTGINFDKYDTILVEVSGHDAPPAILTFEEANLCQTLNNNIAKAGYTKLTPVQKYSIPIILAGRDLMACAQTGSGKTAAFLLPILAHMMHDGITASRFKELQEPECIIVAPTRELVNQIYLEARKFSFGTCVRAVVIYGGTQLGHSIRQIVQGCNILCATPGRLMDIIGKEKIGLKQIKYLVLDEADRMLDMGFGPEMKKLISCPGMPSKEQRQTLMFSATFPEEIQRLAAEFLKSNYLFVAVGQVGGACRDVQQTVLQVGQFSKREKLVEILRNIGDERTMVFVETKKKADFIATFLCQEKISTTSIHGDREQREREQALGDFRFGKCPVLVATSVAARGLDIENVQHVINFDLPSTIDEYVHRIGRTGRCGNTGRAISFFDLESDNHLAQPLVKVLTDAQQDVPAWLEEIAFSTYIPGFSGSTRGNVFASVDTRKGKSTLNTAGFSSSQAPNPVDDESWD
UniProt Q6ZN54: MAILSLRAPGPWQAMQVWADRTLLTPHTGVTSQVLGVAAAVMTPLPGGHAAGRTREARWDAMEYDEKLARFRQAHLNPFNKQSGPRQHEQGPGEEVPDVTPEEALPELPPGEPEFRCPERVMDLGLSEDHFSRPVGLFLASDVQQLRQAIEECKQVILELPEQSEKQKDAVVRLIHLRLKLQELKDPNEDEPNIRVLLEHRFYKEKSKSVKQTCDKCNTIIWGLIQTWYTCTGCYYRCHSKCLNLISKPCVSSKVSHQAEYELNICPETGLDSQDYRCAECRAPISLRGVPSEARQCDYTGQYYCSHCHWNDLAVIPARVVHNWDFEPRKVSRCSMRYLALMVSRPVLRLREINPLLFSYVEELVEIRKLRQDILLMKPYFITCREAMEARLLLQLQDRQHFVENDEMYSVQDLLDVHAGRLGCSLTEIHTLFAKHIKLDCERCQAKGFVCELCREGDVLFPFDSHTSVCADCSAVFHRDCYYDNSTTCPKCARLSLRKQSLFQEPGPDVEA
UniProt Q9Y4B6: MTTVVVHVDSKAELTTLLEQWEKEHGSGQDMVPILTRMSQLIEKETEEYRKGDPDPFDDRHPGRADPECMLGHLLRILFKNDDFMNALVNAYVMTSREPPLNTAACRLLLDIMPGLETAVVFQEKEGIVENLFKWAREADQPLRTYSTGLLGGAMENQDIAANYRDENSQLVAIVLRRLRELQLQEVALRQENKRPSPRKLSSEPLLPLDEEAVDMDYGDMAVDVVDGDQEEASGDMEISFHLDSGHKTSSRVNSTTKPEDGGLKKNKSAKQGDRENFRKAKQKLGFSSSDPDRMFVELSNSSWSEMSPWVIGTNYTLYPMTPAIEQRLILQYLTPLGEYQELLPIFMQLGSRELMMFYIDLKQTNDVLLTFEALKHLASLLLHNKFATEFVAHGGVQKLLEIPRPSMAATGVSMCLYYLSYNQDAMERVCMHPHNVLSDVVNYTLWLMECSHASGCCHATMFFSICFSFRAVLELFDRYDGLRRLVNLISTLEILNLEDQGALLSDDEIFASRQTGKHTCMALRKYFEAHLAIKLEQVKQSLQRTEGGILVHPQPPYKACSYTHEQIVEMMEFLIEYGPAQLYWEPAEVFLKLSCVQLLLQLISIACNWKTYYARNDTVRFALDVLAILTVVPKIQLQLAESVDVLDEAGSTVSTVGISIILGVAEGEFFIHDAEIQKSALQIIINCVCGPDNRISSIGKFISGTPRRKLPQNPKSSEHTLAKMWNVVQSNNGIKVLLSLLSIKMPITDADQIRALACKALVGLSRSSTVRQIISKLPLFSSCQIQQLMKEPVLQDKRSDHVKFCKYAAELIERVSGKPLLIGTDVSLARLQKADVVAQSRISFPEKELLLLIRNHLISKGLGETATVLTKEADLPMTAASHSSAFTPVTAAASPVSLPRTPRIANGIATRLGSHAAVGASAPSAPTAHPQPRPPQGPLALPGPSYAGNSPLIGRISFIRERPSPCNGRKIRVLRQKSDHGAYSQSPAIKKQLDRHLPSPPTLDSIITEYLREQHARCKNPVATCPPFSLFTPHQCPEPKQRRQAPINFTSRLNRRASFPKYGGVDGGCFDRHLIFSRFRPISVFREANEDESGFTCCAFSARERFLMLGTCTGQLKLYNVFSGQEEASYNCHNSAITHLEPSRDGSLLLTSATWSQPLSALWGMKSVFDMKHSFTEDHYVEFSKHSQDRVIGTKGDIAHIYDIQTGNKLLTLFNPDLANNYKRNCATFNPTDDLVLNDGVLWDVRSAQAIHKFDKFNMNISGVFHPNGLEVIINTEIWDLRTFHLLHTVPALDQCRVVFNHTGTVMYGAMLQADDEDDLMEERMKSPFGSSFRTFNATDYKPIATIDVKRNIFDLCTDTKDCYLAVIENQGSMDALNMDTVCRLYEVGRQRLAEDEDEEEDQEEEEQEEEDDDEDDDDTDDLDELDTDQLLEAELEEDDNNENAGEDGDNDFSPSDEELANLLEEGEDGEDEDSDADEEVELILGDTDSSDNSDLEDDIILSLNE
UniProt Q8WUY9, whole entry, looked up: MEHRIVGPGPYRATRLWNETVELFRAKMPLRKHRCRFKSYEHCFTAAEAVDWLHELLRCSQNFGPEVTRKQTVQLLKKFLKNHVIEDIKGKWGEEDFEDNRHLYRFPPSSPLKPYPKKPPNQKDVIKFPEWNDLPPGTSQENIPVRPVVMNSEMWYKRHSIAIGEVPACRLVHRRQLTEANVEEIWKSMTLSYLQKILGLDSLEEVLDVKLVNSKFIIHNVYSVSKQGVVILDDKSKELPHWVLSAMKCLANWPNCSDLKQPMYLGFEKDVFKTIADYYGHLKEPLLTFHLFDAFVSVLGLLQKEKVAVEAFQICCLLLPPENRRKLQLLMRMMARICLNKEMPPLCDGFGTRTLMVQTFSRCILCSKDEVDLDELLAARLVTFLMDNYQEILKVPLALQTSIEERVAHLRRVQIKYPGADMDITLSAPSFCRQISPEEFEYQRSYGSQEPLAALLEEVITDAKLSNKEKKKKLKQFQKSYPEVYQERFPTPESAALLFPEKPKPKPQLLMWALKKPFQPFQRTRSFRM
UniProt Q96FC9: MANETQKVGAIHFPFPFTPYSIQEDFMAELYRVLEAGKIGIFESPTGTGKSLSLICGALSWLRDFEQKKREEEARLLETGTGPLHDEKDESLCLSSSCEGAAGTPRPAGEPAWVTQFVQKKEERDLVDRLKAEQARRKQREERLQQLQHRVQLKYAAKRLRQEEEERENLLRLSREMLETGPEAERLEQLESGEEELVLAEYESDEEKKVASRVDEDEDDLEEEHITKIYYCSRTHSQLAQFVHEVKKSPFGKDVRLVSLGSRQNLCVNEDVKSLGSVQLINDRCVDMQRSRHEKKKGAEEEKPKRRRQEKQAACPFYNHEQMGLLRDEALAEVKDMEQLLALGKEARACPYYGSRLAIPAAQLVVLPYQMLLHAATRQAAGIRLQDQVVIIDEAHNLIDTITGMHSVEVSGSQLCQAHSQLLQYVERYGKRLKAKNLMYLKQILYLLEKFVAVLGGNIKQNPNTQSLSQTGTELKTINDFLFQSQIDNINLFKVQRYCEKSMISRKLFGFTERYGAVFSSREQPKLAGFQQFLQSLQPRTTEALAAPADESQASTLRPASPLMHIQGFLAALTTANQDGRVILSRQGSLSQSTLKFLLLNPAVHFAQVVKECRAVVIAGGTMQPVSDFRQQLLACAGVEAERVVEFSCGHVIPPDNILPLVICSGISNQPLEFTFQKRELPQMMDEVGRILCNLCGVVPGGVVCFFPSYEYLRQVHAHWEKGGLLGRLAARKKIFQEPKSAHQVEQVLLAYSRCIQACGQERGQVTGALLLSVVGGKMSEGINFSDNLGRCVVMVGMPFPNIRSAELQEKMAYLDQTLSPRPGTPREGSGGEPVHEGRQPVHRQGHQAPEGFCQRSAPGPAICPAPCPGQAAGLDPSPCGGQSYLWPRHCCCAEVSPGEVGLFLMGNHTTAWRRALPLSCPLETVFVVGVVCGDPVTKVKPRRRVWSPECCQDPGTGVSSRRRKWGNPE
UniProt Q6P3S1: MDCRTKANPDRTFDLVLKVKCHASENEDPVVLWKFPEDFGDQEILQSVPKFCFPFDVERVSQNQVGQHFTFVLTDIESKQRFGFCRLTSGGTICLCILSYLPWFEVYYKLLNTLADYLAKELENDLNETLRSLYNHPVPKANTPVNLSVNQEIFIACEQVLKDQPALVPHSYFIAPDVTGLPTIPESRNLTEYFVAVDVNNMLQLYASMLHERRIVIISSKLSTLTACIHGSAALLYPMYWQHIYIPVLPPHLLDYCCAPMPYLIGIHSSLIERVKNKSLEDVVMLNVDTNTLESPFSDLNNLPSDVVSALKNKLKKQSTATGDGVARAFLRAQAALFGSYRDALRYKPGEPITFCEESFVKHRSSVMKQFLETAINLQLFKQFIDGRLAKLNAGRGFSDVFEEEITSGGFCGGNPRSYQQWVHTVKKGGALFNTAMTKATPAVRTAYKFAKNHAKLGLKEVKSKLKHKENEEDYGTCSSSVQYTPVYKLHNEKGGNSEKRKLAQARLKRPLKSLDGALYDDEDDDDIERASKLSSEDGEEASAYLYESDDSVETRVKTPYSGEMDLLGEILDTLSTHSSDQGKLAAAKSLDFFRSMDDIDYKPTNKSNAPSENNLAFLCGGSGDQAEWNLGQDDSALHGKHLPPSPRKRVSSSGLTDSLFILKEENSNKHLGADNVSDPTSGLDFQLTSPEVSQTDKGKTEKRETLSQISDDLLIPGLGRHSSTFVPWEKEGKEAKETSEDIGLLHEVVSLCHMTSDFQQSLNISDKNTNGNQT
UniProt Q96SQ9: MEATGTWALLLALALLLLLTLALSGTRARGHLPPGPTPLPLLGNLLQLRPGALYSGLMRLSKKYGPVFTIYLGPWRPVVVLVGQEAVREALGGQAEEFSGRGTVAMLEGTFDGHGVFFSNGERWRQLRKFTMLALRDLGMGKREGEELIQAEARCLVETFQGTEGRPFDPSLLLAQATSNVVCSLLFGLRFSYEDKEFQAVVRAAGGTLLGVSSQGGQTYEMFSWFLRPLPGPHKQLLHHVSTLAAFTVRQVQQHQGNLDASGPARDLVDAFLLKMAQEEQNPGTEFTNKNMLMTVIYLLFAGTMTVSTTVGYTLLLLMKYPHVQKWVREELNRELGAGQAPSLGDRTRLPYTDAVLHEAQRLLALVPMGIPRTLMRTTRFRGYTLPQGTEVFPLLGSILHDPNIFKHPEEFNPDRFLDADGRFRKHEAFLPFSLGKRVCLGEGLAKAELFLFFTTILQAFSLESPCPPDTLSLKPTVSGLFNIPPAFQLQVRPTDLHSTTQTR
UniProt Q5VW00: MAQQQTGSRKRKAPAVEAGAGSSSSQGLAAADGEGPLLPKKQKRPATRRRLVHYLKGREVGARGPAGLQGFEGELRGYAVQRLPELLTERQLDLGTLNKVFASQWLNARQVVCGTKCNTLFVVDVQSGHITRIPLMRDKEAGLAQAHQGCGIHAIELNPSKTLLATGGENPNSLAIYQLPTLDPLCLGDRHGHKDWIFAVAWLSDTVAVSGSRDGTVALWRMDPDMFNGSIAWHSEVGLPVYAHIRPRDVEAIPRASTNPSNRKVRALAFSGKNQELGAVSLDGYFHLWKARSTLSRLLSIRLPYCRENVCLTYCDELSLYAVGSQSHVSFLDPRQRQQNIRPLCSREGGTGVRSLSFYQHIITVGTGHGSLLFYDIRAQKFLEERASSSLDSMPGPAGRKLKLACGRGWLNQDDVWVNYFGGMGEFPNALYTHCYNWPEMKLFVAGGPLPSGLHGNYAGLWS

What was measured:
Test in all cases: log2 fold change, soluble protein after heating vs DMSO (PISA); higher = thermal stabilisation; K562 lysate, 10 uM; active = over 0.2 and 3.5 SD of the protein, either way, in both replicates (recomputed)
[1] = compound: CCCS(=O)(=O)Nc1ccc(F)c(C(=O)c2c[nH]c3ncc(-c4ccc(Cl)cc4)cc23)c1F [vemurafenib]
In short: (§1)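 K562 pellets were dounce-homogenised in PBS pH 7.4 containing 1 mM MgCl2, and the crude extract, at 1 mg/mL protein, was exposed to 10 μM compound for 30 min. Aliquots were heated for 3 min across 48°C-58°C, pooled, brought to 0.5% NP-40 at 4°C and spun at 21,000xg for 90 min, with the supernatant taken as soluble protein. TMTpro 16plex LC-MS/MS with equalised channel sums quantified that protein. Values are log-two fold changes in thermal stability relative to solvent controls, taken from duplicates.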

[2] = compound: CCCS(=O)(=O)Nc1ccc(F)c(C(=O)c2c[nH]c3ncc(Cl)cc23)c1F
In short: as §1

[3] = compound: CCN(CCCOc1ccc2c(Nc3cc(CC(=O)Nc4cccc(F)c4)[nH]n3)ncnc2c1)CCOP(=O)(O)O [barasertib]
In short: as §1

[4] = compound: CC[C@@H]1C(=O)N(C)c2cnc(Nc3ccc(C(=O)NC4CCN(C)CC4)cc3OC)nc2N1C1CCCC1
In short: as §1

[5] = compound: CC[C@@H]1C(=O)N(C)c2cnc(Nc3ccc(C(=O)N[C@H]4CC[C@H](N5CCN(CC6CC6)CC5)CC4)cc3OC)nc2N1C(C)C [volasertib]
In short: as §1

[6] = compound: CCn1c(C(=O)N(C2CC2)C2CC2)cc2c3c(ncn3C)c(Nc3cc(C)n(C)n3)nc21
In short: as §1

[7] = compound: CCn1cc(-c2ccnc3[nH]c(-c4cccc(CN(C)C)c4)cc23)c(-c2ccc(NC(=O)N(C)C)cc2)n1
In short: as §1

[8] = compound: CN1CCC(CNc2ccc3ncc(-c4cccc(OC(F)(F)F)c4)n3n2)CC1
In short: as §1

[9] = compound: CN1CCN(CCOc2cc(OC3CCOCC3)c3c(Nc4c(Cl)ccc5c4OCO5)ncnc3c2)CC1 [saracatinib]
In short: as §1

[10] = compound: CN1CC[C@H](c2c(O)cc(O)c3c(=O)cc(-c4ccccc4Cl)oc23)[C@H](O)C1 [alvocidib]
In short: as §1

[11] = compound: CN1CCc2c(c3ccccc3n2Cc2ccc(C(=O)NO)cc2)C1 [Tubastatin A]
In short: as §1

[12] = compound: CNC(=O)C1=CC=CC=C1NC2=NC(=NC=C2Cl)NC3=C(C=C(C=C3)N4CCOCC4)OC
In short: as §1

[13] = compound: CNC(=O)c1ccc(Nc2ncc(C(F)(F)F)c(NCc3nccnc3N(C)S(C)(=O)=O)n2)cc1 [defactinib]
In short: as §1

[14] = compound: CNc1nc(-c2ccc3c(N)n[nH]c3c2)cc(N2C[C@@H](C(=O)NC3CCCCC3)CC[C@H]2C)n1
In short: as §1

[15] = compound: COC(=O)N[C@@H](C)CNc1nccc(-c2cn(C(C)C)nc2-c2cc(Cl)cc(NS(C)(=O)=O)c2F)n1 [encorafenib]
In short: as §1

[16] = compound: COC(=O)[C@H](CCSC)NC(=O)C1=C(C=C(C=C1)NC[C@H](CS)N)C2=CC=CC=C2
In short: as §1

[17] = compound: COc1cc(Nc2ncc3c(n2)-c2ccc(Cl)cc2C(c2c(F)cccc2OC)=NC3)ccc1C(=O)O [alisertib]
In short: as §1

[18] = compound: COc1cc2nc(-c3cc(F)ccc3O)nc(N[C@@H]3CNC[C@H]3C(C)(C)O)c2cc1OC
In short: as §1

[19] = compound: COc1cc2ncnc(Nc3ccc(F)c(Cl)c3)c2cc1OCCCN1CCOCC1 [gefitinib]
In short: as §1

[20] = compound: CN1CCN(c2nc(C3=C(c4c[nH]c5ccccc45)C(=O)NC3=O)c3ccccc3n2)CC1 [sotrastaurin]
In short: as §1

Measured: log2 fold change

DDX4 (UniProt Q9NQI0)
inactive: [1] -0.044 | [2] -0.015 | [3] 0.069 | [4] -0.071 | [5] -0.021 | [6] 0.015 | [7] -0.167 | [8] 0 | [9] -0.027 | [10] -0.234 | [11] -0.173 | [12] -0.05 | [13] -0.058 | [14] -0.116 | [15] -0.047 | [16] -0.02 | [17] 0.032 | [18] -0.007 | [19] 0.021

DEF8 (UniProt Q6ZN54)
inactive: [1] 0.03 | [3] -0.018 | [4] -0.259 | [9] -0.044 | [20] 0.13 | [12] 0.001 | [13] 0.153 | [14] 0.03 | [15] 0.145 | [16] 0.283

DCAF1 (UniProt Q9Y4B6)
inactive: [1] -0.009 | [2] 0.019 | [3] -0.005 | [4] -0.023 | [5] 0.005 | [6] -0.013 | [7] 0.023 | [8] -0.004 | [9] 0.013 | [20] 0.028 | [10] -0.006 | [11] -0.043 | [12] 0.008 | [13] -0.01 | [14] -0.017 | [15] 0.015 | [16] 0.022 | [17] 0.006 | [18] 0.043 | [19] 0.007

DEPDC1B (UniProt Q8WUY9)
inactive: [1] 0.104 | [4] -0.306 | [6] -0.109 | [9] -0.174 | [11] -0.024 | [13] -0.113 | [14] -0.388 | [15] -0.037 | [16] 0.04 | [17] 0.054 | [19] -0.026

DDX11 (UniProt Q96FC9)
inactive: [1] -0.097 | [6] -0.069 | [7] -0.074 | [8] 0.009 | [9] -0.024 | [20] 0.077 | [10] -0.06 | [11] -0.076 | [12] 0.041 | [13] -0.052 | [14] -0.082 | [17] -0.051 | [19] 0.008

DAAM1 (UniProt Q9Y4D1)
inactive: [1] -0.05 | [2] -0.278 | [3] 0.066 | [5] -0.433 | [7] -0.054 | [8] -0.05 | [9] -0.11 | [20] 0.105 | [10] -0.023 | [12] -0.024 | [13] 0.099 | [14] -0.242 | [18] -0.331

DCAF12 (UniProt Q5T6F0)
inactive: [1] 0.141 | [3] 0.003 | [4] 0.105 | [6] -0.131 | [9] 0.009 | [20] -0.09 | [11] 0.058 | [12] 0.032 | [13] -0.006 | [14] 0.022 | [15] 0.07 | [16] 0 | [17] -0.107 | [19] 0.209

Reprinted from above (2 entries):
DDX11 (UniProt Q96FC9)
inactive: [1] -0.097 | [6] -0.069 | [7] -0.074 | [8] 0.009 | [9] -0.024 | [20] 0.077 | [10] -0.06 | [11] -0.076 | [12] 0.041 | [13] -0.052 | [14] -0.082 | [17] -0.051 | [19] 0.008

DAAM1 (UniProt Q9Y4D1)
inactive: [1] -0.05 | [2] -0.278 | [3] 0.066 | [5] -0.433 | [7] -0.054 | [8] -0.05 | [9] -0.11 | [20] 0.105 | [10] -0.023 | [12] -0.024 | [13] 0.099 | [14] -0.242 | [18] -0.331

Remaining list, next part:

DENND1B (UniProt Q6P3S1)
inactive: [1] 0.128 | [2] -0.036 | [3] 0.01 | [5] -0.05 | [6] -0.134 | [7] 0.022 | [8] -0.024 | [9] -0.018 | [20] 0.04 | [10] 0.074 | [11] 0.152 | [12] -0.105 | [13] 0.099 | [14] 0.023 | [17] -0.146 | [18] -0.226 | [19] -0.102

CYP2S1 isoform 2 (UniProt Q96SQ9)
inactive: [1] 0.062 | [2] 0.136 | [4] 0.119 | [5] 0.038 | [6] 0.063 | [9] 0.017 | [20] 0.081 | [11] 0.027 | [12] -0.085 | [13] -0.022 | [14] -0.151 | [15] 0.024 | [16] 0 | [18] -0.219

DCAF12L2 (UniProt Q5VW00)
inactive: [1] 0.031 | [3] 0.476 | [4] -0.093 | [13] -0.07 | [15] 0.05 | [16] -0.058

DESI2 (UniProt Q9BSY9)
inactive: [1] 0.064 | [4] 0.089 | [7] 0.116 | [8] -0.113 | [10] -0.07 | [13] 0.016 | [15] -0.057 | [16] -0.014
